Assay results reported in PubChem BioAssay AID248 (DTP/NCI, 2004).
The list is a part of this screen's results and no random one: its compounds were picked by chemical class. Other doses and runs of a compound may be missing. T/C is the treated group as % of the vehicle group. Some doses have a count of surviving animals in place of a T/C: the source holds a T/C of zero for them, seemingly a mark for toxic or unscored doses. Some doses without a T/C left all or most animals alive at the check, yet need not have been tolerated: the source hardly ever lists a survival T/C far under the control, and the zero likely stands for such cases as well. Survivors were counted at the toxicity check, usually on the fifth day, unless a day is given; later deaths do not show. Schedules are NCI's codes, read here as Q, the interval in days (D) or hours (H), X, the number of doses. Some schedule codes hold Z or #, which are not explained here. Where survival is the endpoint, the PubChem record calls one and a half times the control and up active, and a quarter to a half above the control has no call in these data; cut-offs in other NCI protocols can differ. Some entries were tested several times; their values stand side by side, smallest first. Some entries show no survivor count and are marked so; the dose need not have been tolerated. Some T/C values are followed by the survivors on the day toxicity was checked, most often the fifth; where neither a count nor a note follows, no animal had died by that day.

System: L1210 leukemia ip in BDF1 mice, survival T/C
Experiment: NCI In Vivo Anticancer Drug Screen. Data for tumor model L1210 Leukemia (intraperitoneal) in B6D2F1 (BDF1) mice
Details: T/C endpoint: mean survival time, higher T/C = longer survival
[1] = dose: 100.0 mg/kg/injection, schedule: Q04DX003 (ip), vehicle: Klucel (hydroxypropylcellulose) (HPC)
[2] = dose: 200.0 mg/kg/injection, schedule: Q04DX003 (ip), vehicle: Klucel (hydroxypropylcellulose) (HPC)
[3] = dose: 400.0 mg/kg/injection, schedule: Q04DX003 (ip), vehicle: Klucel (hydroxypropylcellulose) (HPC)

Structure (SMILES): O[C@H](CNCCBr)[C@@H](O)CNCCBr
- T/C (dose: 0.09 mg/kg/injection, schedule: Q01DX Z (ip), vehicle: methylcellulose (MC)): 127 % of control
- T/C (dose: 0.1 mg/kg/injection, schedule: Q01DX Z (oral), vehicle: saline): 106 % of control
- T/C (dose: 0.13 mg/kg/injection, schedule: Q01DX Z (ip), vehicle: methylcellulose (MC)): 143 % of control
- T/C (dose: 0.2 mg/kg/injection, schedule: Q01DX Z (ip), vehicle: methylcellulose (MC)): 179 % of control
- T/C (dose: 0.3 mg/kg/injection, schedule: Q01DX Z (ip), vehicle: methylcellulose (MC)): 143 and 162 % of control
- T/C (dose: 0.3 mg/kg/injection, schedule: Q01DX Z (oral), vehicle: saline): 101 % of control
- T/C (dose: 0.5 mg/kg/injection, schedule: Q01DX Z (ip), vehicle: methylcellulose (MC)): 181 and 200 % of control
- T/C (dose: 0.62 mg/kg/injection, schedule: Q#A X034 (ip), vehicle: saline): 148 % of control
- T/C (dose: 0.76 mg/kg/injection, schedule: Q01DX Z (ip), vehicle: methylcellulose (MC)): 182 and 215 % of control
- T/C (dose: 0.8 mg/kg/injection, schedule: Q01DX Z (ip), vehicle: methylcellulose (MC)): 188 % of control
- T/C (dose: 1.0 mg/kg/injection, schedule: Q01DX Z (oral), vehicle: saline): 106 % of control
- T/C (dose: 1.16 mg/kg/injection, schedule: Q01DX Z (ip), vehicle: methylcellulose (MC)): 211 and 229 % of control
- T/C (dose: 1.2 mg/kg/injection, schedule: Q01DX Z (ip), vehicle: methylcellulose (MC)): 210 % of control
- T/C (dose: 1.2 mg/kg/injection, schedule: Q01DX Z (oral), vehicle: saline): 116 % of control
- T/C (dose: 1.25 mg/kg/injection, schedule: Q01DX017 (ip), vehicle: saline): 185 % of control
- T/C (dose: 1.25 mg/kg/injection, schedule: Q02DX009 (ip), vehicle: saline): 166 % of control
- T/C (dose: 1.25 mg/kg/injection, schedule: Q#A X034 (ip), vehicle: saline): 211 % of control
- T/C (dose: 1.75 mg/kg/injection, schedule: Q01DX Z (ip), vehicle: methylcellulose (MC)): 209 and 213 % of control
- T/C (dose: 1.8 mg/kg/injection, schedule: Q01DX Z (oral), vehicle: saline): 136 % of control
- T/C (dose: 2.5 mg/kg/injection, schedule: Q01DX001 (ip), vehicle: saline): 146 % of control
- T/C (dose: 2.5 mg/kg/injection, schedule: Q01DX017 (ip), vehicle: saline): 191 % of control [9 of 10 alive]
- T/C (dose: 2.5 mg/kg/injection, schedule: Q02DX009 (ip), vehicle: saline): 247 % of control
- T/C (dose: 2.5 mg/kg/injection, schedule: Q#A X034 (ip), vehicle: saline): 177 % of control
- T/C (dose: 2.6 mg/kg/injection, schedule: Q01DX Z (ip), vehicle: methylcellulose (MC)): 112 [4 of 6 alive] and 171 % of control
- T/C (dose: 2.7 mg/kg/injection, schedule: Q01DX Z (oral), vehicle: saline): 178 % of control
- T/C (dose: 3.0 mg/kg/injection, schedule: Q01DX Z (oral), vehicle: saline): 186 % of control
- T/C (dose: 4.0 mg/kg/injection, schedule: Q01DX Z (oral), vehicle: saline): 192 % of control
- T/C (dose: 5.0 mg/kg/injection, schedule: Q01DX001 (ip), vehicle: saline): 160 % of control
- T/C (dose: 5.0 mg/kg/injection, schedule: Q01DX017 (ip), vehicle: saline): 154 % of control
- T/C (dose: 5.0 mg/kg/injection, schedule: Q02DX009 (ip), vehicle: saline): 188 % of control
- survivor count (dose: 5.0 mg/kg/injection, schedule: Q#A X034 (ip), vehicle: saline): 10 of 10
- T/C (dose: 6.0 mg/kg/injection, schedule: Q01DX Z (oral), vehicle: saline): 188 % of control
- survivor count (dose: 7.5 mg/kg/injection, schedule: Q01DX010 (oral), vehicle: saline): 6 of 6
- survivor count (dose: 8.9 mg/kg/injection, schedule: Q01DX Z (oral), vehicle: saline): 6 of 6
- T/C (dose: 9.0 mg/kg/injection, schedule: Q01DX Z (oral), vehicle: saline): 140 % of control
- T/C (dose: 10.0 mg/kg/injection, schedule: Q01DX001 (ip), vehicle: saline): 163 % of control
- T/C (dose: 10.0 mg/kg/injection, schedule: Q01DX017 (ip), vehicle: saline): 108 % of control
- T/C (dose: 10.0 mg/kg/injection, schedule: Q02DX009 (ip), vehicle: saline): 183 % of control
- survivor count (dose: 10.0 mg/kg/injection, schedule: Q#A X034 (ip), vehicle: saline): 6 of 10
- survivor count (dose: 12.0 mg/kg/injection, schedule: Q01DX Z (oral), vehicle: saline): 6 of 6
- survivor count (dose: 13.3 mg/kg/injection, schedule: Q01DX Z (oral), vehicle: saline): 5 of 6
- survivor count (dose: 15.0 mg/kg/injection, schedule: Q01DX010 (oral), vehicle: saline): 1 of 6
- T/C (dose: 20.0 mg/kg/injection, schedule: Q01DX001 (ip), vehicle: saline): 208 % of control
- survivor count (dose: 20.0 mg/kg/injection, schedule: Q01DX017 (ip), vehicle: saline): 10 of 10
- T/C (dose: 20.0 mg/kg/injection, schedule: Q02DX009 (ip), vehicle: saline): 100 % of control
- survivor count (dose: 30.0 mg/kg/injection, schedule: Q01DX010 (oral), vehicle: saline): 2 of 6
- survivor count (dose: 30.0 mg/kg/injection, schedule: Q01DX Z (oral), vehicle: saline): 3 of 6
- T/C (dose: 40.0 mg/kg/injection, schedule: Q01DX001 (ip), vehicle: saline): 110 % of control
- survivor count (dose: 60.0 mg/kg/injection, schedule: Q01DX010 (oral), vehicle: saline): 0 of 6
- survivor count (dose: 80.0 mg/kg/injection, schedule: Q01DX001 (ip), vehicle: saline): 2 of 4
- survivor count (dose: 120.0 mg/kg/injection, schedule: Q01DX010 (oral), vehicle: saline): 0 of 6
- survivor count (dose: 240.0 mg/kg/injection, schedule: Q01DX010 (oral), vehicle: saline): 0 of 6
- survivor count (dose: 480.0 mg/kg/injection, schedule: Q01DX010 (oral), vehicle: saline): 0 of 6

Structure (SMILES): O=[N+]([O-])c1ccc(Nc2ccc([N+](=O)[O-])cc2[N+](=O)[O-])c([N+](=O)[O-])c1
- T/C [1]: 95 % of control [survivor count not shown]
- T/C [2]: 97 % of control [survivor count not shown]
- T/C [3]: 89 % of control [survivor count not shown]

Structure (SMILES): CCc1c([N+](=O)[O-])c(CC)c([N+](=O)[O-])c(CC)c1[N+](=O)[O-]
- T/C (dose: 100.0 mg/kg/injection, schedule: Q04DX002 (ip), vehicle: saline with Tween-80): 103 % of control [survivor count not shown]
- T/C (dose: 200.0 mg/kg/injection, schedule: Q04DX002 (ip), vehicle: saline with Tween-80): 111 % of control [survivor count not shown]
- T/C (dose: 400.0 mg/kg/injection, schedule: Q04DX002 (ip), vehicle: saline with Tween-80): 114 % of control [survivor count not shown]

Structure (SMILES): CC(C)OP(=S)(Cl)OC(C)C
- T/C (dose: 20.0 mg/kg/injection, schedule: Q04DX003 (ip), vehicle: Klucel (hydroxypropylcellulose) (HPC)): 100 % of control
- T/C (dose: 25.0 mg/kg/injection, schedule: Q01DX009 (ip), vehicle: Klucel (hydroxypropylcellulose) (HPC)): 109 % of control
- T/C (dose: 40.0 mg/kg/injection, schedule: Q04DX003 (ip), vehicle: Klucel (hydroxypropylcellulose) (HPC)): 102 % of control
- T/C (dose: 50.0 mg/kg/injection, schedule: Q01DX009 (ip), vehicle: Klucel (hydroxypropylcellulose) (HPC)): 101 % of control
- T/C (dose: 80.0 mg/kg/injection, schedule: Q04DX003 (ip), vehicle: Klucel (hydroxypropylcellulose) (HPC)): 106 % of control [5 of 6 alive]
- T/C (dose: 100.0 mg/kg/injection, schedule: Q01DX009 (ip), vehicle: Klucel (hydroxypropylcellulose) (HPC)): 92 % of control
- T/C [1]: 96 % of control
- survivor count [2]: 3 of 6
- survivor count [3]: 0 of 6

Structure (SMILES): CN(C)P(=O)(Cl)Cl
- T/C (dose: 100.0 mg/kg/injection, schedule: Q04DX002 (ip), vehicle: saline): 101 % of control [survivor count not shown]
- T/C (dose: 200.0 mg/kg/injection, schedule: Q04DX002 (ip), vehicle: saline): 93 % of control [survivor count not shown]
